# Source: patent publication US10494341B2, “Compound containing indoleacetic acid core structure and use thereof” (Beijing An Jian Xi Bio-Medical Technology Co., Ltd., priority 2015, dated 2019)
# At least one structure is not confirmed: it was looked up by name or label, or the drawing left a doubt. Some of these results come from one statement about several compounds together.
# How the values were obtained:
# SW480 cells = experiment: Measurement of cellular uptake of compounds (HPLC of intermediate I); type: in vitro ADME; details: 10 μM, 37° C., 1-12 hours
# [1] = system: colon cancer cells (SW480); details: SW480 tumors in nude mice, doxorubicin 2.5 mg/kg i.p. every 2 days for 5 weeks, agents daily
# Method: The experiment was carried out using compound a in this example. Under sterile conditions, a suspension of colon cancer cells (SW480) in logarithmic growth phase (cell concentration was adjusted to 1×10^7/mL with physiological saline) was inoculated subcutaneously to 5 to 6 weeks old balb/c female nude mice on the right rear back, and each nude mice was inoculated at an amount of 0.3 ml, i.e. the number of cells contained was 3×10^6 per each mouse. 10 days later, subcutaneous transplanted tumor of 100-250 mm^3 appeared. […] During the dosing period, the body weight of the nude mice was measured every two days with a precision electronic balance. […] After tumor formation, the surface morphology and activity of the transplanted tumor were examined, and the longest diameter (a) and the shortest diameter (b) of the tumor nodules were measured every 3 days with a vernier caliper. […] The tumor tissue and normal peripheral tissues were taken on the last day of treatment, and the content of the intermediate I therein was measured by HPLC (FIG. 9a). At the same time, paraffin sections were made, the occurrence of apoptosis was detected by terminal labeling (FIG. 9b), and the relative survival percentages of normal tissue and tumor tissue were calculated (the results are summarized in FIG. 9b).
Compound,"ability to enter cells, compared with intermediate I (SW480 cells)",effect on tumor / on sensitivity of tumor to doxorubicin [1]
COC1=C(OC)C(=O)C(CCCCCCCCCCOC(=O)Cc2c(C)n(C(=O)c3ccc(Cl)cc3)c3cc(OC)ccc23)=C(C)C1=O [compound a],at least 6 times,–
Cc1ccc(-c2cc(C(F)(F)F)nn2-c2ccc(S(N)(=O)=O)cc2)cc1 [Celecoxib],–,significantly weaker than the compound of the present invention in the sensitizing effect on chemotherapeutic agents
